Source: ChEMBL document CHEMBL3988442, “University of Dundee, Small-Polar-MMV Screening Library” (2021).

Results are given as percent effect.
The controls that fix the scale are not given in the record; negative values are as filed.
This is an unselected part of the compounds tested.
A dash means the value is not listed here; it may have been measured.

Mtb growth Cornell: 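Whole-cell assay for inhibitors of Mycobacterium tuberculosis growth, labelled Cornell in the record; the read-out is not stated. The concentration is filed as 10 mM, unlikely as a test dose, so the dose is not known. Higher means stronger inhibition (inferred from two other growth screens of the library). Size under these conditions: about 53,000 compounds, about 900 of them at 50% or above in at least one test.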
Mtb heat-shock: 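Assay on Mycobacterium tuberculosis, filed only as a heat shock assay from Cornell; the read-out is not stated. The concentration is filed as 10 mM, unlikely as a test dose, so the dose is not known. Higher reads as stronger inhibition (inferred: compounds with an IC50 in retests scored well above the rest). Size under these conditions: about 69,000 compounds, about 930 of them at 50% or above in at least one test.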

| # | structure | Mtb growth Cornell | Mtb heat-shock |
|---|---|---|---|
| 1 | `COc1ccccc1-n1nc(CC(C)C)nc1Cc1nnc(N)s1` | - | 12.17 |
| 2 | `Cc1ccc(C(=O)N2CCC3(CCCN(c4ccc(C)nn4)C3)C2)cn1` (configuration not stated) | 1.5 | 8.784 |
| 3 | `Cc1cc(C)nc(N2CCC(CNC(=O)c3ccccn3)CC2)n1` | -27.62 | -9.705 |
| 4 | `Cc1nc(-c2ccc(S(=O)(=O)N3CCSC3)cc2)co1` | - | 17.71 |
| 5 | `Cc1c(-c2cc(C(F)(F)F)nc(N3CCC(N)CC3)n2)cnn1C` | 2.397 | -8.82 |
| 6 | `O=C(CN1CCCC1COc1ccccc1)NCc1ccccn1` (configuration not stated) | - | -5.236 |
| 7 | `O=C(O)C(F)(F)F.[H][C@@]12CN(c3ncc(C)cn3)C[C@@]1([H])N(CCN(C)C)C(=O)CO2` | 24.05 | 9.305 |
| 8 | `Cc1ccoc1C(=O)NC1CCN(CC(=O)N(C)c2ccccc2)CC1` | -46.53 | -18.6 |
| 9 | `Cc1cc(CN2CCN(Cc3cc(C#N)ccc3F)CC2)no1` | -25.4 | 13.67 |
| 10 | `CC(c1ccncn1)N(C)S(=O)(=O)NCc1ccccc1` (configuration not stated) | -54.72 | 2.979 |
| 11 | `CCC(CO)NCc1ccc(-c2ccc(Br)cc2)o1.Cl` (configuration not stated) | 52.02 | 15.75 |
| 12 | `O=C(O)C(F)(F)F.[H][C@@]12CC(=O)N(CC(=O)N(C)C)[C@@]1([H])CCN2Cc1cccc(C#N)c1` | -1.254 | -6.157 |
| 13 | `CC(C)N(C)C(=O)c1coc(CN2CCN(c3ccccc3F)CC2)n1` | 9.117 | -34.61 |
| 14 | `CCOc1ccccc1N1CCN(CC2(O)CCCNC2)CC1` (configuration not stated) | 19.45 | 8.582 |
| 15 | `COc1ccccc1NC(=O)NC(C)c1nc[nH]n1` (configuration not stated) | - | 16.33 |
| 16 | `COCC(=O)N1CCN(C)C(=O)C(Cc2ccc(-c3cccs3)cc2)C1` (configuration not stated) | -11.09 | -28.21 |
| 17 | `Cc1[nH]c2ccccc2c1CCNC(=O)N1CCC2(C1)OCCO2` | - | 9.277 |
| 18 | `Cc1ccc(CC(=O)N2CCCC(c3nc(C)cs3)C2)cn1` (configuration not stated) | 7.75 | 9.495 |
| 19 | `CCc1csc(C2CCCN(C(=O)c3ccncc3)C2)n1` (configuration not stated) | 12.93 | -6.657 |
| 20 | `[H][C@@]12CCN[C@]1([H])C(=O)NC[C@H](CCC(=O)NCc1ccc(F)cc1)N2C` | - | 14.33 |
| 21 | `Cc1csc(N(C)C(=O)C2CC(=O)N(c3ccccc3F)C2)n1` (configuration not stated) | 10.59 | 4.178 |
| 22 | `COCC(=O)N1CCC2(COCc3cnc(-c4ccccc4)nc32)C1` (configuration not stated) | 4.838 | 5.04 |
| 23 | `O=C(c1ccc(C2CCNC2)cc1)N1CCC(N2CCC(O)CC2)CC1` (configuration not stated) | 2.111 | -7.29 |
| 24 | `[H][C@@]12CC[C@@]([H])(C1)[C@H](Nc1nccc(-c3cnn(CCC)c3C)n1)C2` | 88.15 | 50.09 |
| 25 | `[H][C@@]12CS(=O)(=O)C[C@]1([H])N(Cc1cnn(-c3ccc(C)cc3)c1)CCN2C` | 28.78 | 10.68 |
| 26 | `CN1CCc2c(C#N)c(NCCCO)n3cnnc3c2C1` | 7.39 | -15.98 |
| 27 | `Cc1nc(C2CCCN2C(=O)c2ccc(F)cc2)ncc1C(N)=O` (configuration not stated) | -15.22 | -1.613 |
| 28 | `CCOc1ccc(CN2CC[C@](C)(O)C(C)(C)C2)cn1` | -4.231 | 1.653 |
| 29 | `Cc1cccnc1CNc1cc(N2CCCC2CO)ncn1` (configuration not stated) | -22.96 | -4.707 |
| 30 | `O=C(c1scc2c1OCCO2)N1CCN(Cc2cccc(F)c2)CC1` | 6.887 | -33.13 |
| 31 | `Cn1ncc2c(NC3CCC3)nc(-c3ccncc3)nc21` | - | 2.386 |
| 32 | `NC(=O)C1(CNC(=O)CCc2ccc(Cl)s2)CCOCC1` | - | 10.06 |
| 33 | `[H][C@@]12COC[C@H](C(=O)Nc3cnccn3)[C@]1([H])CN(S(C)(=O)=O)C2` | -5.917 | -28.32 |
| 34 | `CN(C)C(=O)Cn1c2c(ccc1=O)CC(NCc1ccoc1)CC2.O=C(O)C(F)(F)F` (configuration not stated) | 22.24 | -33.59 |
| 35 | `CC(=O)N(C)Cc1cccc(NC(=O)N(C)CCc2cccs2)c1` | -11.68 | -27.2 |
| 36 | `CN(Cc1nnc(C2CC2)n1C)S(=O)(=O)c1ccccc1C#N` | 12.23 | -1.086 |
| 37 | `Cl.c1cn(-c2cnc(C3CCCNC3)cn2)cn1` (configuration not stated) | -51.75 | -28.08 |
| 38 | `COCCN(C)C[C@@H]1CN(C(=O)c2c(C)cccc2OC)C[C@@H]1CO` | -2.202 | -11.49 |
| 39 | `O=C(NCCN1CCCC(CO)C1)c1ccc2sccc2c1` (configuration not stated) | 9.781 | -0.1847 |
| 40 | `Cc1ncoc1C(=O)N1CCOC(Cc2ccccc2)C1` (configuration not stated) | - | -2.752 |
| 41 | `COc1ncccc1CNC(=O)c1ccco1` | -41.71 | -19.95 |
| 42 | `COc1cccc2c1OCC(Cc1cc(C(=O)N3CCCC3)ccn1)C2` (configuration not stated) | -24.62 | -18.82 |
| 43 | `Cc1nc[nH]c1-c1nccn1-c1cccc(CN2CCCC2)c1` | - | -20.95 |
| 44 | `Cc1noc(C)c1CN1CCC2(CC1)C(c1ccccc1)CC(=O)N2C.O=C(O)C(F)(F)F` (configuration not stated) | 4.872 | 6.651 |
| 45 | `CCOCCCNC(=O)C(NC(=O)Cc1cccs1)c1ccccc1` (configuration not stated) | 5.642 | 0.3828 |
| 46 | `CC(=O)NC(C(=O)N(C)Cc1nnc2n1CCC2)C(C)C` (configuration not stated) | -42.05 | -11.54 |
| 47 | `Cc1cc(OCCC(=O)Nc2cccc(F)c2)nnc1C` | -4.208 | 7.749 |
| 48 | `CSCc1cc(C(=O)NC2(C#N)CCSC2)ccc1F` (configuration not stated) | 4.18 | 32.44 |
| 49 | `COc1cccc(CCC(=O)N2CCN(CC(C)(C)O)CC2)c1` | - | -10.46 |
| 50 | `O=C(O)C(F)(F)F.O=C(O)C(F)(F)F.O=C(c1cccnc1)N1CCC[C@]2(C[C@H](Oc3ncccc3F)CO2)C1` | -30.18 | -19.77 |
| 51 | `CCOc1cc([C@@H]2N[C@H](c3nccs3)Cc3ccsc32)ccc1OC` | 39.28 | 10.26 |
| 52 | `CC(C)c1cc(C(=O)N2CCC3(CCc4ccccc4C(=O)N3)C2)no1` (configuration not stated) | 10.6 | 13.73 |
| 53 | `N#Cc1cc(F)ccc1CN1CCCCC1Cn1cncn1` (configuration not stated) | - | -18 |
| 54 | `O=C(O)C(F)(F)F.O=C(O)C(F)(F)F.[H][C@@]12CN(CC)C[C@]1([H])[C@@H](OC)CCN2S(=O)(=O)c1cccnc1` | 32.32 | -2.151 |
| 55 | `Cn1nc(CNC(=O)CN2C(=O)CCC2=O)cc1C1CC1` | -15.46 | -6.102 |
| 56 | `Cc1ccc2c(c1)OC(C)CN2C(=O)CCc1cscn1` (configuration not stated) | 15.34 | -1.366 |
| 57 | `O=C(c1ccc(-n2ccnc2)cc1)N1CCCC1` | -17.01 | -6.743 |
| 58 | `[H][C@@]12C=C[C@@]([H])(C1)[C@H](C(=O)N1CCN(c3cc(C)c4ccccc4n3)CC1)C2` | 11.29 | 8.452 |
| 59 | `CC(Cn1ccnc1)NC(=O)NCCc1cccnc1` (configuration not stated) | - | -7.764 |
| 60 | `NC(=O)C1CCCN1Cc1ccccc1NC(=O)CC(F)(F)F` (configuration not stated) | -76.51 | -1.269 |
| 61 | `CC(=O)Nc1cccc2c1ccn2CC(=O)Nc1n[nH]c(CC(C)C)n1` | -27.06 | 3.155 |

Some entries from above, unchanged:

CC(=O)NC(C(=O)N(C)Cc1nnc2n1CCC2)C(C)C (configuration not stated) gave Mtb growth Cornell: -42.05%; Mtb heat-shock: -11.54%.
Cc1ncoc1C(=O)N1CCOC(Cc2ccccc2)C1 (configuration not stated) gave Mtb heat-shock: -2.752%.
O=C(NCCN1CCCC(CO)C1)c1ccc2sccc2c1 (configuration not stated) gave Mtb growth Cornell: 9.781%; Mtb heat-shock: -0.1847%.
COc1ncccc1CNC(=O)c1ccco1 gave Mtb growth Cornell: -41.71%; Mtb heat-shock: -19.95%.
O=C(c1scc2c1OCCO2)N1CCN(Cc2cccc(F)c2)CC1 gave Mtb growth Cornell: 6.887%; Mtb heat-shock: -33.13%.
CCC(CO)NCc1ccc(-c2ccc(Br)cc2)o1.Cl (configuration not stated) gave Mtb growth Cornell: 52.02%; Mtb heat-shock: 15.75%.